Test in all cases: binding assay
Data set [1] addresses RA three-finger array, finger 2 RSDYLTN E352N,T354R,R355A,H380Y,T383N,D407A,E408N,R409L,K410V (synthetic construct (mouse Zif268 scaffold)) (UniProt P08046). Conditions: Zn; E. coli B1H, 28-bp random library, 5 or 20 mM 3-AT, 37 C; residues 333-418; only the motif is given.
For data set [2], the target named is RA three-finger array, finger 2 QSGNLTE E352N,T354R,R355A,R377Q,D379G,H380N,T383E,D407A,E408N,R409L,K410V (synthetic construct (mouse Zif268 scaffold)) (UniProt P08046). Particulars: Zn, 100 nM beta-estradiol; yeast GFP reporter, 12 h induction, 3 biological replicates; residues 333-418; letters built from the parent sequence and the stated change; variant of RA-CAA; counted as no binding; scale: mean GFP / mean GFP of Zif268 on its consensus site.

Data set [3] concerns the target RA three-finger array, finger 2 DSSNLRS E352N,T354R,R355A,R377D,D379S,H380N,T382R,T383S,D407A,E408N,R409L,K410V (synthetic construct (mouse Zif268 scaffold)) (UniProt P08046). Particulars: Zn, 100 nM beta-estradiol; yeast GFP reporter, 12 h induction, 3 biological replicates; residues 333-418; letters built from the parent sequence and the stated change; variant of RA-CAC; counted as no binding; scale: mean GFP / mean GFP of Zif268 on its consensus site.

In data set [4] the target is RA three-finger array, finger 2 TSYNLTR E352N,T354R,R355A,R377T,D379Y,H380N,T383R,D407A,E408N,R409L,K410V (synthetic construct (mouse Zif268 scaffold)) (UniProt P08046). Conditions: Zn, 100 nM beta-estradiol; yeast GFP reporter, 12 h induction, 3 biological replicates; residues 333-418; letters built from the parent sequence and the stated change; variant of RA-GAG; counted as no binding; scale: mean GFP / mean GFP of Zif268 on its consensus site.

Data set [5] concerns the target RA three-finger array, finger 2 QSGNLKS E352N,T354R,R355A,R377Q,D379G,H380N,T382K,T383S,D407A,E408N,R409L,K410V (synthetic construct (mouse Zif268 scaffold)) (UniProt P08046). Conditions: Zn, 100 nM beta-estradiol; yeast GFP reporter, 12 h induction, 3 biological replicates; residues 333-418; letters built from the parent sequence and the stated change; variant of RA-CAA; counted as no binding; scale: mean GFP / mean GFP of Zif268 on its consensus site.

Data set [6] addresses RA three-finger array, finger 2 HSSNLTH E352N,T354R,R355A,R377H,D379S,H380N,T383H,D407A,E408N,R409L,K410V (synthetic construct (mouse Zif268 scaffold)) (UniProt P08046). Conditions: Zn, 100 nM beta-estradiol; yeast GFP reporter, 12 h induction, 3 biological replicates; residues 333-418; letters built from the parent sequence and the stated change; variant of RA-CAC; counted as no binding; scale: mean GFP / mean GFP of Zif268 on its consensus site.

Data set [7] deals with RA three-finger array, finger 2 RADNLTE E352N,T354R,R355A,S378A,H380N,T383E,D407A,E408N,R409L,K410V (synthetic construct (mouse Zif268 scaffold)) (UniProt P08046). Conditions: Zn, 100 nM beta-estradiol; yeast GFP reporter, 12 h induction, 3 biological replicates; residues 333-418; letters built from the parent sequence and the stated change; variant of RA-CAG; counted as no binding; scale: mean GFP / mean GFP of Zif268 on its consensus site.

The target of data set [8] is RA three-finger array, finger 2 TSGNLTE E352N,T354R,R355A,R377T,D379G,H380N,T383E,D407A,E408N,R409L,K410V (synthetic construct (mouse Zif268 scaffold)) (UniProt P08046). Particulars: Zn, 100 nM beta-estradiol; yeast GFP reporter, 12 h induction, 3 biological replicates; residues 333-418; letters built from the parent sequence and the stated change; variant of RA-CAT; counted as no binding; scale: mean GFP / mean GFP of Zif268 on its consensus site.

Data set [9] has as its target RA three-finger array, finger 2 SKKALTE E352N,T354R,R355A,R377S,S378K,D379K,H380A,T383E,D407A,E408N,R409L,K410V (synthetic construct (mouse Zif268 scaffold)) (UniProt P08046). Conditions: Zn, 100 nM beta-estradiol; yeast GFP reporter, 12 h induction, 3 biological replicates; residues 333-418; letters built from the parent sequence and the stated change; variant of RA-CAC; counted as no binding; scale: mean GFP / mean GFP of Zif268 on its consensus site.

The target of data set [10] is RA three-finger array, finger 2 ASSNLRA E352N,T354R,R355A,R377A,D379S,H380N,T382R,T383A,D407A,E408N,R409L,K410V (synthetic construct (mouse Zif268 scaffold)) (UniProt P08046). Conditions: Zn, 100 nM beta-estradiol; yeast GFP reporter, 12 h induction, 3 biological replicates; residues 333-418; letters built from the parent sequence and the stated change; variant of RA-CAT; counted as no binding; scale: mean GFP / mean GFP of Zif268 on its consensus site.

The target in data set [11] is RA three-finger array, finger 2 RSDNLRQ E352N,T354R,R355A,H380N,T382R,T383Q,D407A,E408N,R409L,K410V (synthetic construct (mouse Zif268 scaffold)) (UniProt P08046). Conditions: Zn; E. coli B1H, 28-bp random library, 5 or 20 mM 3-AT, 37 C; residues 333-418; only the motif is given.
The target of data set [12] is RA three-finger array, finger 2 RSDNLTR E352N,T354R,R355A,H380N,T383R,D407A,E408N,R409L,K410V (synthetic construct (mouse Zif268 scaffold)) (UniProt P08046). Conditions: Zn, 100 nM beta-estradiol; yeast GFP reporter, 12 h induction, 3 biological replicates; residues 333-418; letters built from the parent sequence and the stated change; variant of RA-GAG; counted as no binding; scale: mean GFP / mean GFP of Zif268 on its consensus site.

Data set [13] addresses RA three-finger array, finger 2 TSWNLRS E352N,T354R,R355A,R377T,D379W,H380N,T382R,T383S,D407A,E408N,R409L,K410V (synthetic construct (mouse Zif268 scaffold)) (UniProt P08046). Particulars: Zn, 100 nM beta-estradiol; yeast GFP reporter, 12 h induction, 3 biological replicates; residues 333-418; letters built from the parent sequence and the stated change; variant of RA-CAG; counted as no binding; scale: mean GFP / mean GFP of Zif268 on its consensus site.

For data set [14], the target named is Zif three-finger array, finger 2 QSGNLKS R377Q,D379G,H380N,T382K,T383S,D407A,E408N,R409L,K410V (synthetic construct (mouse Zif268 scaffold)) (UniProt P08046). Conditions: Zn; E. coli B1H, 28-bp random library, 5 or 20 mM 3-AT, 37 C; residues 333-418; only the motif is given.
The target in data set [15] is RA three-finger array, finger 2 RSGNLRS E352N,T354R,R355A,D379G,H380N,T382R,T383S,D407A,E408N,R409L,K410V (synthetic construct (mouse Zif268 scaffold)) (UniProt P08046). Particulars: Zn, 100 nM beta-estradiol; yeast GFP reporter, 12 h induction, 3 biological replicates; residues 333-418; letters built from the parent sequence and the stated change; variant of RA-CAG; counted as no binding; scale: mean GFP / mean GFP of Zif268 on its consensus site.

Data set [16] has as its target Zif three-finger array, finger 2 DSSNLRS R377D,D379S,H380N,T382R,T383S,D407A,E408N,R409L,K410V (synthetic construct (mouse Zif268 scaffold)) (UniProt P08046). Conditions: Zn; E. coli B1H, 28-bp random library, 5 or 20 mM 3-AT, 37 C; residues 333-418; only the motif is given.
The target in data set [17] is Zif three-finger array, finger 2 HSSNLTH R377H,D379S,H380N,T383H,D407A,E408N,R409L,K410V (synthetic construct (mouse Zif268 scaffold)) (UniProt P08046). Particulars: Zn; E. coli B1H, 28-bp random library, 5 or 20 mM 3-AT, 37 C; residues 333-418; only the motif is given.
In data set [18] the target is Zif three-finger array, finger 2 RSDNLRS H380N,T382R,T383S,D407A,E408N,R409L,K410V (synthetic construct (mouse Zif268 scaffold)) (UniProt P08046). Conditions: Zn; E. coli B1H, 28-bp random library, 5 or 20 mM 3-AT, 37 C; residues 333-418; only the motif is given.
Data set [19] concerns the target Zif three-finger array, finger 2 ASSNLRA R377A,D379S,H380N,T382R,T383A,D407A,E408N,R409L,K410V (synthetic construct (mouse Zif268 scaffold)) (UniProt P08046). Particulars: Zn; E. coli B1H, 28-bp random library, 5 or 20 mM 3-AT, 37 C; residues 333-418; only the motif is given.
Data set [20] concerns the target RA three-finger array, finger 2 RSDYLRM E352N,T354R,R355A,H380Y,T382R,T383M,D407A,E408N,R409L,K410V (synthetic construct (mouse Zif268 scaffold)) (UniProt P08046). Particulars: Zn; E. coli B1H, 28-bp random library, 5 or 20 mM 3-AT, 37 C; residues 333-418; only the motif is given.
In data set [21] the target is RA three-finger array, finger 2 RSDGLRM E352N,T354R,R355A,H380G,T382R,T383M,D407A,E408N,R409L,K410V (synthetic construct (mouse Zif268 scaffold)) (UniProt P08046). Particulars: Zn; E. coli B1H, 28-bp random library, 5 or 20 mM 3-AT, 37 C; residues 333-418; only the motif is given.
For data set [22], the target named is RA three-finger array, finger 2 RSDNLRM E352N,T354R,R355A,H380N,T382R,T383M,D407A,E408N,R409L,K410V (synthetic construct (mouse Zif268 scaffold)) (UniProt P08046). Particulars: Zn; E. coli B1H, 28-bp random library, 5 or 20 mM 3-AT, 37 C; residues 333-418; only the motif is given.

Binding result and binding signal data for 11 sequences are collected here from publication PMC3919609.

For some assays here: A negative result means that nothing was seen under these conditions. For some assays here: The direction of at least one scale is not stated here.

Take GAGAAGAAG (double strand) [RA-AAG]: the binding result in data set [1] and in data set [11] was “binds” each time. For the same sequence, the binding signal worked out at 0.053 in data set [2]; 0.042 in [3]; 0.05 in data set [4]; 0.075 in data set [5]; 0.045 in data set [6]; 0.062 in [7]. For the same sequence, the binding signal came out at 0.05 in [8], 0.05 in data set [9], 0.074 in [10] and 0.057 in data set [12].
For the sequence GAGCAAAAG (double strand) [RA-CAA], the binding signal in data set [13] was 0.066; in data set [3], 0.047; in [4], 0.07; in data set [6], 0.054; in [7] it was 0.061; in data set [8], 0.082. Besides, the values for the binding signal in data set [9], in [10] and in data set [12] were 0.071, 0.067 and 0.065, respectively.
As to GAGCAAGCG (double strand) [Zif-CAA], the binding result in data set [14] is “binds”.
In the case of GAGCACAAG (double strand) [RA-CAC], the binding signal is 0.057 in data set [2]; 0.046 in [13]; 0.047 in [4]; 0.047 in data set [7]; 0.051 in [8]; 0.056 in data set [9]. Besides, the results for the binding signal in data set [15] and in [12] were 0.084 and 0.041, respectively.
For GAGCACGCG (double strand) [Zif-CAC], the results for the binding result in [16] and in [17] were “binds” and “no binding”, respectively.
For GAGCAGAAG (double strand) [RA-CAG], the binding signal stood at 0.071 in data set [2]; 0.048 in data set [3]; 0.053 in data set [6]; 0.06 in data set [8]; 0.053 in [9]; 0.086 in data set [12].
With GAGCAGGCG (double strand) [Zif-CAG], the binding result in data set [18] is recorded as “binds”.
With GAGCATAAG (double strand) [RA-CAT], the binding signal in data set [2] was determined as 0.069; in [3], 0.042; in data set [4] it was 0.053; in data set [6] it was 0.05; in data set [7] it was 0.052; in data set [8], 0.08. For the same sequence, the binding signal came out at 0.05 in [9] and 0.042 in data set [12].
GAGCATGCG (double strand) [Zif-CAT]: the binding result in data set [19] is listed as “no binding”.
As to GAGGAGAAG (double strand) [RA-GAG], the binding signal in data set [2] amounted to 0.066; in [3], 0.05; in data set [5] it was 0.049; in data set [6], 0.053; in data set [7], 0.064; in [8], 0.058. Moreover, the binding signal in data set [9] turned out to be 0.061; in [10], 0.059.
Take GAGTAGAAG (double strand) [RA-TAG]: the binding result in [20], in data set [21] and in data set [22] was “binds” each time.
